PMC11449273
No constants are given. Whether binding was seen depends on the method and setting. Binding seen in cells or lysates may run through a third protein. Some entries that bind do so weakly or less than the wild type. Tags and fused reporters may be left off the sequences shown.

Protein sequences, listed by entry. Tags and fused reporters are not part of them.
UniProt P06748: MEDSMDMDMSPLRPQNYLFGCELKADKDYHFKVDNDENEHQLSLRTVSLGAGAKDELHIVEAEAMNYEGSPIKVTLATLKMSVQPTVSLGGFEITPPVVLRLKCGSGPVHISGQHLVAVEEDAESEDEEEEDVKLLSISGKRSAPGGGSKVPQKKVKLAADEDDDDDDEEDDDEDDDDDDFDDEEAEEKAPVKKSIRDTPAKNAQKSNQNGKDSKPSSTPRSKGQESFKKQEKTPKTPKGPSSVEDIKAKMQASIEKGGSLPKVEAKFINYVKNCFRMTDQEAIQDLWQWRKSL

Biological target: nucleophosmin (NPM), endogenous in H1299 transfectants (human (endogenous in H1299)) (UniProt P06748)
Assay: co-IP; total cell extracts of H1299-PG-p53-(WT, 175, 273) cells; sequential co-immunoprecipitation and immunoblotting with nucleophosmin, plakoglobin and p53 antibodies

binding: binds
B1: plakoglobin-FLAG, exogenously expressed in H1299 cells (protein, UniProt P14923 1-745)
chain: MEVMNLMEQPIKVTEWQQTYTYDSGIHSGANTCVPSVSSKGIMEEDEACGRQYTLKKTTTYTQGVPPSQGDLEYQMSTTARAKRVREAMCPGVSGEDSSLLLATQVEGQATNLQRLAEPSQLLKSAIVHLINYQDDAELATRALPELTKLLNDEDPVVVTKAAMIVNQLSKKEASRRALMGSPQLVAAVVRTMQNTSDLDTARCTTSILHNLSHHREGLLAIFKSGGIPALVRMLSSPVESVLFYAITTLHNLLLYQEGAKMAVRLADGLQKMVPLLNKNNPKFLAITTDCLQLLAYGNQESKLIILANGGPQALVQIMRNYSYEKLLWTTSRVLKVLSVCPSNKPAIVEAGGMQALGKHLTSNSPRLVQNCLWTLRNLSDVATKQEGLESVLKILVNQLSVDDVNVLTCATGTLSNLTCNNSKNKTLVTQNSGVEALIHAILRAGDKDDITEPAVCALRHLTSRHPEAEMAQNSVRLNYGIPAIVKLLNQPNQWPLVKATIGLIRNLALCPANHAPLQEAAVIPRLVQLLVKAHQDAQRHVAAGTQQPYTDGVRMEEIVEGCTGALHILARDPMNRMEIFRLNTIPLFVQLLYSSVENIQRVAAGVLCELAQDKEAADAIDAEGASAPLMELLHSRNEGTATYAAAVLFRISEDKNPDYRKRVSVELTNSLFKHDPAAWEAAQSMIPINEPYGDDMDATYRPMYSSDVPLDPLEMHMDMDGDYPIDTYSDGLRPPYPTADHMLA
